US20250352497A1, “BIGUANIDE BASE COMPOSITIONS, BIGUANIDE BASE PHARMACEUTICAL COMPOSITIONS, AND THEIR PREPARATIONS AND USES” (ADA FORSYTH INSTITUTE, INC., priority 2022, published 2025)

Test system: model microbiome simulating human oral microbiome
Experiment: pH of model microbiome (supernatant and saliva-derived biofilm) after treatment in the presence of 2% sucrose
Assay type: cell-based
Conditions: supernatant and biofilms, various concentrations
Procedure: Saliva samples were collected and pooled from 5 healthy volunteers as a model microbiome simulating human oral microbiome, and used to inoculate SHI medium containing different test compositions and controls.
1 mL pooled saliva sample was added to each well of a 24-well plate that had been pre-coated with sterilized, cell-free saliva. The plate was incubated at 37° C. for 16 h in microaerobic conditions (2% O2, 5% CO2, balanced with nitrogen) to allow biofilm formation. After incubation, planktonic portion was collected, optical density was measured at 600 nm and cells were pelleted for DNA isolation. Meanwhile, 1 mL of SHI medium was added to the biofilm portion of each well, biofilm cells were dispersed by scraping and vortex to break the cell aggregates. Optical density was measured at 600 nm and cells were collected for DNA isolation.
Supernatant and biofilms prepared with the model microbiome simulating human oral microbiome according to Example III were treated with embodiments of the CHX base composition (e.g., solution embodiments of the CHX base composition prepared according to Example I (the CHX base solutions); and MSN3 prepared according to Example II(B)(ii)). […]

CCCCCCCCCCCCCCCC[n+]1ccccc1 [CPC, cetylpyridinium chloride]
pH of the treated microbiome: ≤ 5.5
